This passage reports binding results from PMC4587843, “Vascular Smooth Muscle Cells Stimulate Platelets and Facilitate Thrombus Formation through Platelet CLEC-2: Implications in Atherothrombosis” (PLoS ONE, 2015).

Amino acid sequences for entries named in this document (tags omitted). Residues count along the entry.
UniProt Q9P126, residues 55-229: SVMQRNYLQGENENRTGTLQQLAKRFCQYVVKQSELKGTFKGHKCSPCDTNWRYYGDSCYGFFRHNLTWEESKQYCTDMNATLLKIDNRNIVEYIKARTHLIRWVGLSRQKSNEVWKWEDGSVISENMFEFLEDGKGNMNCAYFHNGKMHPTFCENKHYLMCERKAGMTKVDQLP

No constants are given. Whether binding was seen depends on the method and setting. Some entries that bind do so weakly or less than the wild type. Tags and fused reporters may be left off the sequences shown.

Test [1] has as its target T1, GST-tagged S100A13 recombinant protein (UniProt Q99584).
T1 sequence: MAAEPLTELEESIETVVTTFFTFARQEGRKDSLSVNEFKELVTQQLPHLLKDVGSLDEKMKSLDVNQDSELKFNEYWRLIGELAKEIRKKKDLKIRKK
Nature of the test: platelet adhesion assay; coverslips coated with 100 ug/mL recombinant S100A13-GST, blocked with BSA; washed murine platelets (WT or CLEC-2-deficient, 6 x 10^7/mL) seeded 30 min at room temperature; adherent platelets stained with TRITC-phalloidin and counted; only the target purified.

Test [2] concerns the target recombinant extracellular domain of human CLEC-2 expressed as a dimeric rabbit immunoglobulin Fc domain fusion protein (human) (UniProt Q9P126). In words: SPR; data not shown; analytes perfused over recombinant CLEC-2 (hCLEC-2-rFc2); both purified. Background: SPR reads the build-up and loss of mass on a sensor chip optically.

B1: native CLEC-2 on the surface of murine platelets (receptor, UniProt Q9JL99 1-229)
chain: MQDEDGYITLNIKPRKQALSSAEPASSWWRVMALVLLISSMGLVVGLVALGIMSVTQQKYLLAEKENLSATLQQLAKKFCQELIRQSEIKTKSTFEHKCSPCATKWRYHGDSCYGFFRRNLTWEESKQYCTEQNATLVKTASQSTLDYIAERITSVRWIGLSRQNSKKDWMWEDSSVLRKNGINLSGNTEENMNCAYLHNGKIHPASCKERHYLICERNAGMTRVDQLL
In the case of B1, the binding result in test [1] is on record as “binds”.

B2: GST-tagged S100A13 recombinant protein (natural protein, UniProt Q99584 1-98, looked up)
chain: MAAEPLTELEESIETVVTTFFTFARQEGRKDSLSVNEFKELVTQQLPHLLKDVGSLDEKMKSLDVNQDSELKFNEYWRLIGELAKEIRKKKDLKIRKK
notes: S100A13; also called S100A13-GST; recombinant S100A13-GST; source: bought: CycLex Co., Ltd. (Japan)
In the case of B2, the binding result in test [2] was “binds”.
